Drawing on paper doi:10.1101/2025.04.28.651057, this text covers binding for 1 substance.

Chains of the proteins cited; added tags and fusions are not shown. Lines headed by an entry give the natural chain unless they say otherwise; changes in a name come on top.
UniProt Q9ESG8, whole entry: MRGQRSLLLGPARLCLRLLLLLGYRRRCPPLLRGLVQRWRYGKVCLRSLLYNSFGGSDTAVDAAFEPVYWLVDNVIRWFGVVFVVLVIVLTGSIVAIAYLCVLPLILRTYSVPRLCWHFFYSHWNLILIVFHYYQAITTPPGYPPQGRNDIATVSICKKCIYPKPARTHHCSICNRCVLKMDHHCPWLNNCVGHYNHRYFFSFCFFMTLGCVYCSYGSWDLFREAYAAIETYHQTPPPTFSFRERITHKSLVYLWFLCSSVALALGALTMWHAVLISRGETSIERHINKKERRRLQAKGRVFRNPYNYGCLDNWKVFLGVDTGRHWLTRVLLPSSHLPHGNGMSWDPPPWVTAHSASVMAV
UniProt Q8VDZ4, whole entry: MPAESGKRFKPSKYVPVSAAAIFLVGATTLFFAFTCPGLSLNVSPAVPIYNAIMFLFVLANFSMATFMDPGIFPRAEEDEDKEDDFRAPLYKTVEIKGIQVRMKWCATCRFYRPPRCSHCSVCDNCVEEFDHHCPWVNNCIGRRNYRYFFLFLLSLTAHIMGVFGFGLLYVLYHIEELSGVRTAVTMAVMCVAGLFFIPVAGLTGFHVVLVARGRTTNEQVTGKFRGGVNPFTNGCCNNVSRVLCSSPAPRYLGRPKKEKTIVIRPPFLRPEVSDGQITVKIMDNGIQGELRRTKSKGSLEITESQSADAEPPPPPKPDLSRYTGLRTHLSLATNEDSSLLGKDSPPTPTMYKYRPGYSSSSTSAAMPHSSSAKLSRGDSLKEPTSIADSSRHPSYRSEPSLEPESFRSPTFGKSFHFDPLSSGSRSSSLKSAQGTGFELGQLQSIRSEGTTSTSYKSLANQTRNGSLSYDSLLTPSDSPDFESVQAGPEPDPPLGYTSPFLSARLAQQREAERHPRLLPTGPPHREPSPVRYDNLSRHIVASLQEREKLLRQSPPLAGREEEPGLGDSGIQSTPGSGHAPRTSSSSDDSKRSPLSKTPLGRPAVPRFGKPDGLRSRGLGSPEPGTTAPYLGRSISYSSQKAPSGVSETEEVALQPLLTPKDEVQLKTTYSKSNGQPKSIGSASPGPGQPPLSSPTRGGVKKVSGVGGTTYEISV
UniProt Q5Y5T5, whole entry: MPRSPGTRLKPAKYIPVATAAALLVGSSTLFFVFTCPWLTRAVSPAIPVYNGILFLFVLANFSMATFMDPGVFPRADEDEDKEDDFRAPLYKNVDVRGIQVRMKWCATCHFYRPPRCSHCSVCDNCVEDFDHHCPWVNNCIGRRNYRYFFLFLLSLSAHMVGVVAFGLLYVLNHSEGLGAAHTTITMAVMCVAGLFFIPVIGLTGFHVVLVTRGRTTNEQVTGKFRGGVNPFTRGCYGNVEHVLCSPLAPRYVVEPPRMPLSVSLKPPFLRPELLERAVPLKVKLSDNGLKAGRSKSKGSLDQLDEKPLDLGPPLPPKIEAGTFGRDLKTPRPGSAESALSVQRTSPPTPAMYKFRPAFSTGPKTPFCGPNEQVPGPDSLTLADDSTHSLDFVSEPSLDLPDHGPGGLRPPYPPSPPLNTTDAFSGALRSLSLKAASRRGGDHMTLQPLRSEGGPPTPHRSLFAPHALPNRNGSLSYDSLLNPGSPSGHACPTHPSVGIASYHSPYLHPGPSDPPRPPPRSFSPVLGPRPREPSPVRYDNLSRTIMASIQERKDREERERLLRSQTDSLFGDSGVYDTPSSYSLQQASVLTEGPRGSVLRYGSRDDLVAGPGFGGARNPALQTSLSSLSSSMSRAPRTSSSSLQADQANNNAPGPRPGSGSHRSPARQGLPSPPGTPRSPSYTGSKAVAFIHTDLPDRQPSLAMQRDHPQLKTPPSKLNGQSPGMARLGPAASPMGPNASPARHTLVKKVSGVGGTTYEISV
UniProt P59268, whole entry: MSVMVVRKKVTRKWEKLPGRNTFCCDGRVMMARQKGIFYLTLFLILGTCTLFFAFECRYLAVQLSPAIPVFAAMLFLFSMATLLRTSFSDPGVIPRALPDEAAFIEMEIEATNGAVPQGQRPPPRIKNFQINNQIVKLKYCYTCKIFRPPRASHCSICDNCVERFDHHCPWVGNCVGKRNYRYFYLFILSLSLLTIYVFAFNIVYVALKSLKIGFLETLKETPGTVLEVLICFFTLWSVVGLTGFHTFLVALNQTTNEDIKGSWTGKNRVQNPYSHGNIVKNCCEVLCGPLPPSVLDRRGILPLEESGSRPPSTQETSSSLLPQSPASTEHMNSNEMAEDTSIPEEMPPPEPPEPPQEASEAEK
UniProt Q7Z5G4, whole entry: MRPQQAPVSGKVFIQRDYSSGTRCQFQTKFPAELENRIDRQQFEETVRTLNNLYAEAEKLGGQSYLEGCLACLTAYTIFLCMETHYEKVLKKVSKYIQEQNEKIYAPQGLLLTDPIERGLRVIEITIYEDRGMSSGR

Holding throughout (assay): co-IP
Assay [1] has as its target HA-Zdhhc16 (mouse) (mouse) (UniProt Q9ESG8).
Assay [2] deals with T1, HA-Zdhhc20 (mouse) (mouse) (UniProt Q5Y5T1).
T1 sequence: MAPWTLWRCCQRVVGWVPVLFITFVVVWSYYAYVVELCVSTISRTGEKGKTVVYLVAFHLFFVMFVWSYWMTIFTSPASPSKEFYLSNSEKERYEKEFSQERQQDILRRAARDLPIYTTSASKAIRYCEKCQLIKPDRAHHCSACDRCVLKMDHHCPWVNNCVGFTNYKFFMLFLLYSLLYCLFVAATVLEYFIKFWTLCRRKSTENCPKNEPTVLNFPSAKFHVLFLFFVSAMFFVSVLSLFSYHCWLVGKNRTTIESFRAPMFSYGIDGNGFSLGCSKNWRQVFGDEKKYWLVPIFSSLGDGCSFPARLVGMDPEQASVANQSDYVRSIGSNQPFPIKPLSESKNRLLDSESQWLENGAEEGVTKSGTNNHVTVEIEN

Assay [3] concerns the target T2, HA-Zdhhc24 (mouse) (mouse) (UniProt Q6IR37).
T2 sequence: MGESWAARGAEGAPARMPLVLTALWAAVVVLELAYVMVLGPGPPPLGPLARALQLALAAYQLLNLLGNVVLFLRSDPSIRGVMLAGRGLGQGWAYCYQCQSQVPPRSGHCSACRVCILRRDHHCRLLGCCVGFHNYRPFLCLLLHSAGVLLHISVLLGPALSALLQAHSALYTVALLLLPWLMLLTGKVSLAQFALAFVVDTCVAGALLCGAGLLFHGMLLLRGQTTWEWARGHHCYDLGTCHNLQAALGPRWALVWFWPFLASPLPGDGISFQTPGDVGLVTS

Assay [4] addresses T3, HA-Zdhhc4 (mouse) (mouse) (UniProt Q9D6H5).
T3 sequence: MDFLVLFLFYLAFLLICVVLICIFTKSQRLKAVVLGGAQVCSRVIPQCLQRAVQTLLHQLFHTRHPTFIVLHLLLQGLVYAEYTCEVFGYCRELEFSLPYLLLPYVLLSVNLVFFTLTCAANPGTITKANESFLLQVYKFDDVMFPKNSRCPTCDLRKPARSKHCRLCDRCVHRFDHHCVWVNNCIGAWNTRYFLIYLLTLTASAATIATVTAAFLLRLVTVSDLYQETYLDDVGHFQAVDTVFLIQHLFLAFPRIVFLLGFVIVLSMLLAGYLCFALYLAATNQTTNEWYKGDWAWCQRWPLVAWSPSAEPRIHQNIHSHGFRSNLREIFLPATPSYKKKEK

Assay [5] concerns the target HA-Zdhhc5 (mouse, wild type, full length) (mouse) (UniProt Q8VDZ4).
Assay [6] deals with HA-Zdhhc5^ANAA (triple alanine mutant) (mouse) (UniProt Q8VDZ4).
In assay [7] the target is HA-Zdhhc5^ΔDHHC (Δ104-154) (mouse) (UniProt Q8VDZ4).
The target in assay [8] is HA-Zdhhc8 (mouse) (mouse) (UniProt Q5Y5T5).
Assay [9] addresses HA-Zdhhc9 (mouse) (mouse) (UniProt P59268).
The target in assay [10] is Zdhhc5^ANYR (Arg144Ala) (mouse) (UniProt Q8VDZ4).

No constants are given. Whether binding was seen depends on the method and setting. In cells and extracts the contact can be indirect. Some entries that bind do so weakly or less than the wild type. For some of these results: Where a sequence is shown, tags or fusion partners need not be part of it.

With “endogenous human GOLGA7 (from UniProt Q7Z5G4 1-137)”, the binding result was “no binding” in assay [1]; “no binding” in assay [2]; “no binding” in assay [3]; “no binding” in assay [4]; “binds” in [5]; “no binding” in [6]. The binding result is given as “no binding” in [7], “binds” in assay [8], “binds” in assay [9] and “binds” in assay [10].
